Earlier results, collected in paper PMC9355975, “Functional human cell-based vascularised cardiac tissue model for biomedical research and testing” (Scientific Reports, 2022).

Parameters: method as in PMID 24052561, PMID 27701120, PMID 27956204, PMID 22972846, PMID 3988675
Conditions: free plasma concentration from the literature; cited from earlier work

Cc1cccc(CCN2CCC(C(=O)c3ccc(NS(C)(=O)=O)cc3)CC2)n1 [E-4031]
Therapeutic concentration: 8.4[60] nM
